The subject of the test is BDF1 mice, L1210 leukemia sc, survival T/C. In words: NCI In Vivo Anticancer Drug Screen. Data for tumor model L1210 Leukemia (subcutaneous) in B6D2F1 (BDF1) mice. The settings on record: T/C endpoint: median survival time, schedule: Q01DX Z (sc), higher T/C = longer survival. Here is the method: The antitumor activity of compounds was measured in mice bearing transplantable tumors. Survival or tumor size were measured and the results are expressed as the measurement made in the treated group (T) divided by the measurement made in the vehicle treated control group (C). The tumor model used in this assay is L1210 Leukemia (subcutaneous) in B6D2F1 (BDF1) mice

[1] abbreviates: dose: 5.0 mg/kg/injection, vehicle: methylcellulose (MC).
Where [2] appears, read: dose: 8.4 mg/kg/injection, vehicle: methylcellulose (MC).
[3] abbreviates: dose: 14.0 mg/kg/injection, vehicle: methylcellulose (MC).
[4] abbreviates: dose: 108.0 mg/kg/injection, vehicle: methylcellulose (MC).
[5] abbreviates: dose: 3.0 mg/kg/injection, vehicle: methylcellulose (MC).
[6] abbreviates: dose: 3.0 mg/kg/injection, vehicle: olive oil, sesame oil, peanut oil.
The mark [7] stands for this setting: dose: 5.0 mg/kg/injection, vehicle: olive oil, sesame oil, peanut oil.
[8] abbreviates: dose: 8.4 mg/kg/injection, vehicle: olive oil, sesame oil, peanut oil.
Setting [9] is: dose: 14.0 mg/kg/injection, vehicle: olive oil, sesame oil, peanut oil.
[10] abbreviates: dose: 23.0 mg/kg/injection, vehicle: methylcellulose (MC).
[11] abbreviates: dose: 23.0 mg/kg/injection, vehicle: olive oil, sesame oil, peanut oil.
The mark [12] stands for this setting: dose: 39.0 mg/kg/injection, vehicle: methylcellulose (MC).
Setting [13] is: dose: 39.0 mg/kg/injection, vehicle: olive oil, sesame oil, peanut oil.
[14] abbreviates: dose: 180.0 mg/kg/injection, vehicle: methylcellulose (MC).
[15] abbreviates: dose: 39.0 mg/kg/injection, vehicle: water.
Setting [16] is: dose: 65.0 mg/kg/injection, vehicle: water.
[17] abbreviates: dose: 500.0 mg/kg/injection, vehicle: methylcellulose (MC).
[18] abbreviates: dose: 300.0 mg/kg/injection, vehicle: methylcellulose (MC).

Each structure is given as a SMILES string. The list is a part of this screen's results and no random one: it gathers tests that were run many times, whatever their T/C, doses with no T/C, and many T/C values between a quarter and a half above the control. Other doses and runs of a compound stand elsewhere. T/C: endpoint of the treated group in % of that of the vehicle group. Some entries give survivors of the animals treated and no T/C: the source holds a T/C of zero for them, seemingly a mark for toxic or unscored doses. Counts of survivors are from the toxicity check (mostly the fifth day) where no day follows; animals may have died later. Schedules are NCI's codes, taken here to give the interval after Q, in days (D) or hours (H), and the number of doses after X. Some schedules carry Z or #; the key to these is not given. Some doses were run more than once; their values stand side by side, smallest first.

Turning to `COC(=O)c1[nH]c(=O)[nH]c(=O)c1F`, under “dose: 2.5 mg/kg/injection, vehicle: methylcellulose (MC)”, the survivor count is 3 of 8.
With `C[n+]1c2ccccc2nc2c(N)cc(N)cc21`, the survivor count was 3 of 8 under setting [1]; 4 of 8 under setting [2]; 5 of 8 under setting [3]; 6 of 10 (dose: 65.0 mg/kg/injection, vehicle: saline); 2 of 8 under setting [4]; 0 of 10 (dose: 108.0 mg/kg/injection, vehicle: saline).
Take `COc1ccc2nc3cc(Cl)ccc3c(NCCN(CCCl)CCCl)c2c1`: the survivor count runs as follows: (dose: 0.65 mg/kg/injection, vehicle: methylcellulose (MC)) 4 of 10; (dose: 0.65 mg/kg/injection, vehicle: olive oil, sesame oil, peanut oil) 4 of 10; (dose: 1.08 mg/kg/injection, vehicle: methylcellulose (MC)) 3 of 10 and 5 of 10; (dose: 1.08 mg/kg/injection, vehicle: olive oil, sesame oil, peanut oil) 2 of 10; (dose: 1.8 mg/kg/injection, vehicle: methylcellulose (MC)) 3 of 10 and 4 of 10; (dose: 1.8 mg/kg/injection, vehicle: olive oil, sesame oil, peanut oil) 6 of 10. In addition, the survivor count was 4 of 10 and 6 of 10 under setting [5]; 2 of 10 under setting [6]; 3 of 10 and 5 of 10 under setting [1]; 2 of 10 under setting [7]; 1 of 10 and 5 of 10 under setting [2]; 4 of 10 under setting [8]. Also, the survivor count runs as follows: under setting [3], 2 of 10 and 6 of 10; under setting [9], 2 of 10; under setting [10], 2 of 10 and 5 of 10; under setting [11], 3 of 10; under setting [12], 3 of 10; under setting [13], 2 of 10.
In the case of `c1ccc2[nH]cnc2c1`, the survivor count reads like this: (dose: 23.4 mg/kg/injection, vehicle: other) 3 of 10; (dose: 39.0 mg/kg/injection, vehicle: other) 3 of 10; (dose: 65.0 mg/kg/injection, vehicle: other) 5 of 10; (dose: 108.0 mg/kg/injection, vehicle: other) 4 of 10; (dose: 180.0 mg/kg/injection, vehicle: other) 4 of 10.
Regarding `COc1cc([C@@H]2c3cc4c(cc3[C@H](OC(=O)CCCC(=O)O)[C@H]3COC(=O)[C@H]23)OCO4)cc(OC)c1OC`, the survivor count (dose: 3.0 mg/kg/injection, vehicle: water) is reported as 6 of 10.
Consider `CCN(CC)C(=O)c1cccnc1`, for which the survivor count by setting is: (dose: 360.0 mg/kg/injection, vehicle: water) 2 of 10; (dose: 600.0 mg/kg/injection, vehicle: water) 0 of 10; (dose: 1000.0 mg/kg/injection, vehicle: water) 0 of 10.
With `CS(=O)(=O)OCCCl`, the survivor count by setting is: under setting [4], 5 of 10; under setting [14], 0 of 10.
On to `O=C(NP(=O)(N1CC1)N1CC1)OCc1ccccc1`, for which the survivor count is, setting by setting: (dose: 1.08 mg/kg/injection, vehicle: water) 6 of 10; (dose: 1.8 mg/kg/injection, vehicle: water) 5 of 10; (dose: 5.0 mg/kg/injection, vehicle: water) 3 of 10; (dose: 8.4 mg/kg/injection, vehicle: water) 6 of 10; under setting [15], 6 of 10; under setting [16], 4 of 10.
With `CCNC(=O)c1cccnc1`, the survivor count is, setting by setting: (dose: 14.0 mg/kg/injection, vehicle: water) 6 of 10; (dose: 23.0 mg/kg/injection, vehicle: water) 6 of 10; under setting [15], 6 of 10; under setting [16], 6 of 10; (dose: 108.0 mg/kg/injection, vehicle: water) 5 of 10.
For `ClCCN(CCCl)c1ccc(CCNc2ccnc3cc(Cl)ccc23)cc1`, the survivor count reads like this: under setting [5], 6 of 10; under setting [6], 3 of 10; under setting [1], 6 of 10; under setting [7], 1 of 10; under setting [2], 6 of 10; under setting [8], 4 of 10. For the same compound, the survivor count is 1 of 10 under setting [9]; 5 of 10 under setting [10]; 3 of 10 under setting [11]; 3 of 10 and 6 of 10 under setting [12]; 5 of 10 under setting [13]; 3 of 10 (dose: 65.0 mg/kg/injection, vehicle: methylcellulose (MC)). Also, the survivor count reads like this: (dose: 65.0 mg/kg/injection, vehicle: olive oil, sesame oil, peanut oil) 5 of 10; under setting [4], 4 of 10 and 5 of 10; (dose: 108.0 mg/kg/injection, vehicle: olive oil, sesame oil, peanut oil) 3 of 10 and 6 of 10; under setting [14], 5 of 10; (dose: 180.0 mg/kg/injection, vehicle: olive oil, sesame oil, peanut oil) 4 of 10.
In the case of `C[C@]12CCC(=O)C=C1CC[C@@H]1[C@@H]2C(=O)C[C@@]2(C)[C@H]1CC[C@]2(O)C(=O)CO`, under setting [17], the survivor count is given as 6 of 10.
Consider `CSc1ncnc2nc[nH]c12`, for which the survivor count under setting [18] was 3 of 10.
On to `CCCCNc1ncnc2c1cnn2C`, for which the survivor count runs as follows: under setting [18], 4 of 10; under setting [17], 0 of 10.

Values taken from PubChem BioAssay AID250 (DTP/NCI, 2004).
